In PubChem BioAssay AID248 (DTP/NCI, 2004):
The list shows only some results of the screen, not a fair sample: it is rich in T/C values a quarter to a half above the control, in often repeated tests (any T/C) and in doses without a T/C. Further doses and runs are listed elsewhere. T/C gives the treated animals as a percentage of the vehicle group. Some doses have a count of surviving animals in place of a T/C: the source holds a T/C of zero for them, seemingly a mark for toxic or unscored doses. Some survivor counts are full or nearly so, which does not show that the dose was tolerated: survival well below the control is almost never listed, so the zero probably covers shortened survival too. Counts of survivors are from the toxicity check (mostly the fifth day) where no day follows; animals may have died later. Schedule codes are those of the source, taken here to give the interval after Q, in days (D) or hours (H), and the number of doses after X. Some doses were run more than once; the values are given in rising order. For survival time, the PubChem record calls one and a half times the control and up active, and a quarter to a half above the control has no call in these data; cut-offs in other NCI protocols can differ. Some T/C values carry the count of animals alive at the toxicity check (mostly the fifth day); where none is given, no animal had died by that day. Additions like (4×) say how often a value occurs here.

Tested on: L1210 leukemia ip in BDF1 mice, survival T/C
Test: NCI In Vivo Anticancer Drug Screen. Data for tumor model L1210 Leukemia (intraperitoneal) in B6D2F1 (BDF1) mice
Settings: T/C endpoint: median survival time, higher T/C = longer survival
[1] = dose: 2048.0 mg/kg/injection, schedule: Q04DX003 (oral), vehicle: saline with Tween-80

## CC(CN1CC(=O)NC(=O)C1)N1CC(=O)NC(=O)C1 (configuration not stated)
dose: 205.0 mg/kg/injection, schedule: Q04DX003 (ip), vehicle: Klucel (hydroxypropylcellulose) (HPC), evaluated on day 35
  T/C: 138 % of control
dose: 205.0 mg/kg/injection, schedule: Q04DX003 (ip), vehicle: Klucel (hydroxypropylcellulose) (HPC), evaluated on day 60
  T/C: 155 % of control
dose: 256.0 mg/kg/injection, schedule: Q04DX003 (ip), vehicle: Klucel (hydroxypropylcellulose) (HPC), evaluated on day 5
  T/C: 202 % of control
dose: 256.0 mg/kg/injection, schedule: Q04DX003 (ip), vehicle: Klucel (hydroxypropylcellulose) (HPC), evaluated on day 7
  T/C: 184 % of control
dose: 256.0 mg/kg/injection, schedule: Q04DX003 (ip), vehicle: Klucel (hydroxypropylcellulose) (HPC), evaluated on day 35
  T/C: 177 % of control
dose: 256.0 mg/kg/injection, schedule: Q04DX003 (ip), vehicle: Klucel (hydroxypropylcellulose) (HPC), evaluated on day 60
  T/C: 205 % of control
dose: 256.0 mg/kg/injection, schedule: Q04DX003 (oral), vehicle: saline with Tween-80
  T/C: 162, 173, 190 [8 of 10 alive], 257 % of control
dose: 256.0 mg/kg/injection, schedule: Q08DX002 (ip), vehicle: saline with Tween-80
  T/C: 132 % of control
dose: 300.0 mg/kg/injection, schedule: Q04DX003 (ip), vehicle: Klucel (hydroxypropylcellulose) (HPC), evaluated on day 5
  T/C: 174, 175, 195, 197 % of control
dose: 300.0 mg/kg/injection, schedule: Q04DX003 (ip), vehicle: Klucel (hydroxypropylcellulose) (HPC), evaluated on day 7
  T/C: 157 % of control
dose: 300.0 mg/kg/injection, schedule: Q04DX003 (ip), vehicle: Klucel (hydroxypropylcellulose) (HPC), evaluated on day 24
  T/C: 155 % of control
dose: 300.0 mg/kg/injection, schedule: Q04DX003 (ip), vehicle: Klucel (hydroxypropylcellulose) (HPC), evaluated on day 27
  T/C: 211 % of control
dose: 300.0 mg/kg/injection, schedule: Q04DX003 (ip), vehicle: Klucel (hydroxypropylcellulose) (HPC), evaluated on day 30
  T/C: 170 % of control
dose: 300.0 mg/kg/injection, schedule: Q04DX003 (ip), vehicle: Klucel (hydroxypropylcellulose) (HPC), evaluated on day 33
  T/C: 194 % of control
dose: 300.0 mg/kg/injection, schedule: Q04DX003 (ip), vehicle: Klucel (hydroxypropylcellulose) (HPC), evaluated on day 34
  T/C: 197 % of control
dose: 300.0 mg/kg/injection, schedule: Q04DX003 (ip), vehicle: Klucel (hydroxypropylcellulose) (HPC), evaluated on day 46
  T/C: 172 % of control
dose: 300.0 mg/kg/injection, schedule: Q04DX003 (ip), vehicle: Klucel (hydroxypropylcellulose) (HPC), evaluated on day 60
  T/C: 194 % of control
dose: 320.0 mg/kg/injection, schedule: Q04DX003 (ip), vehicle: Klucel (hydroxypropylcellulose) (HPC), evaluated on day 5
  T/C: 138 % of control
dose: 320.0 mg/kg/injection, schedule: Q04DX003 (ip), vehicle: Klucel (hydroxypropylcellulose) (HPC), evaluated on day 7
  T/C: 242 % of control
dose: 320.0 mg/kg/injection, schedule: Q04DX003 (ip), vehicle: Klucel (hydroxypropylcellulose) (HPC), evaluated on day 35
  T/C: 244 % of control
dose: 320.0 mg/kg/injection, schedule: Q04DX003 (ip), vehicle: Klucel (hydroxypropylcellulose) (HPC), evaluated on day 60
  T/C: 138 % of control [7 of 8 alive]
dose: 400.0 mg/kg/injection, schedule: Q01DX001 (ip), vehicle: Klucel (hydroxypropylcellulose) (HPC), evaluated on day 5
  T/C: 132, 139, 146, 160 (2×), 166 % of control
dose: 400.0 mg/kg/injection, schedule: Q01DX001 (ip), vehicle: Klucel (hydroxypropylcellulose) (HPC), evaluated on day 30
  T/C: 138 (2×) and 168 % of control
dose: 400.0 mg/kg/injection, schedule: Q01DX001 (ip), vehicle: Klucel (hydroxypropylcellulose) (HPC), evaluated on day 60
  T/C: 166 % of control
dose: 400.0 mg/kg/injection, schedule: Q01DX001 (ip), vehicle: Klucel (hydroxypropylcellulose) (HPC), evaluated on day 75
  T/C: 166 % of control
dose: 400.0 mg/kg/injection, schedule: Q01DX001 (ip), vehicle: other
  T/C: 149 % of control
dose: 400.0 mg/kg/injection, schedule: Q04DX003 (ip), vehicle: Klucel (hydroxypropylcellulose) (HPC), evaluated on day 5
  T/C: 95, 99, 106, 109, 118, 130, 152, 184, 253, 258, 265 % of control
dose: 400.0 mg/kg/injection, schedule: Q04DX003 (ip), vehicle: Klucel (hydroxypropylcellulose) (HPC), evaluated on day 7
  T/C: 138, 141, 188 % of control
dose: 400.0 mg/kg/injection, schedule: Q04DX003 (ip), vehicle: Klucel (hydroxypropylcellulose) (HPC), evaluated on day 30
  T/C: 118 [7 of 8 alive] and 138 % of control
dose: 400.0 mg/kg/injection, schedule: Q04DX003 (ip), vehicle: Klucel (hydroxypropylcellulose) (HPC), evaluated on day 32
  T/C: 180 % of control
dose: 400.0 mg/kg/injection, schedule: Q04DX003 (ip), vehicle: Klucel (hydroxypropylcellulose) (HPC), evaluated on day 35
  T/C: 138 % of control
dose: 400.0 mg/kg/injection, schedule: Q04DX003 (ip), vehicle: Klucel (hydroxypropylcellulose) (HPC), evaluated on day 50
  T/C: 253 % of control
dose: 400.0 mg/kg/injection, schedule: Q04DX003 (ip), vehicle: Klucel (hydroxypropylcellulose) (HPC), evaluated on day 54
  T/C: 111 % of control
dose: 400.0 mg/kg/injection, schedule: Q04DX003 (ip), vehicle: Klucel (hydroxypropylcellulose) (HPC), evaluated on day 60
  T/C: 94, 100, 133, 150, 184, 255 % of control
dose: 400.0 mg/kg/injection, schedule: Q04DX003 (ip), vehicle: Klucel (hydroxypropylcellulose) (HPC), evaluated on day 75
  T/C: 255 % of control
dose: 500.0 mg/kg/injection, schedule: Q04DX003 (ip), vehicle: Klucel (hydroxypropylcellulose) (HPC), evaluated on day 5
  T/C: 92, 98, 104, 125, 239 % of control
dose: 500.0 mg/kg/injection, schedule: Q04DX003 (ip), vehicle: Klucel (hydroxypropylcellulose) (HPC), evaluated on day 7
  T/C: 131 and 159 % of control
dose: 500.0 mg/kg/injection, schedule: Q04DX003 (ip), vehicle: Klucel (hydroxypropylcellulose) (HPC), evaluated on day 24
  T/C: 155 % of control
dose: 500.0 mg/kg/injection, schedule: Q04DX003 (ip), vehicle: Klucel (hydroxypropylcellulose) (HPC), evaluated on day 27
  T/C: 111 % of control [6 of 8 alive]
dose: 500.0 mg/kg/injection, schedule: Q04DX003 (ip), vehicle: Klucel (hydroxypropylcellulose) (HPC), evaluated on day 30
  T/C: 100 % of control
dose: 500.0 mg/kg/injection, schedule: Q04DX003 (ip), vehicle: Klucel (hydroxypropylcellulose) (HPC), evaluated on day 33
  T/C: 116 % of control
dose: 500.0 mg/kg/injection, schedule: Q04DX003 (ip), vehicle: Klucel (hydroxypropylcellulose) (HPC), evaluated on day 34
  T/C: 98 % of control
dose: 500.0 mg/kg/injection, schedule: Q04DX003 (ip), vehicle: Klucel (hydroxypropylcellulose) (HPC), evaluated on day 35
  T/C: 133 % of control
dose: 500.0 mg/kg/injection, schedule: Q04DX003 (ip), vehicle: Klucel (hydroxypropylcellulose) (HPC), evaluated on day 46
  T/C: 238 % of control
dose: 500.0 mg/kg/injection, schedule: Q04DX003 (ip), vehicle: Klucel (hydroxypropylcellulose) (HPC), evaluated on day 60
  T/C: 94 and 115 % of control
dose: 512.0 mg/kg/injection, schedule: Q04DX003 (oral), vehicle: saline with Tween-80
  T/C: 120 [8 of 10 alive], 152, 169, 196 % of control
dose: 800.0 mg/kg/injection, schedule: Q01DX001 (ip), vehicle: Klucel (hydroxypropylcellulose) (HPC), evaluated on day 5
  T/C: 67, 69, 74, 75, 98, 150 % of control
dose: 800.0 mg/kg/injection, schedule: Q01DX001 (ip), vehicle: Klucel (hydroxypropylcellulose) (HPC), evaluated on day 75
  T/C: 100 % of control
dose: 800.0 mg/kg/injection, schedule: Q01DX001 (ip), vehicle: Klucel (hydroxypropylcellulose) (HPC)
  survivor count: 4 of 8, 5 of 8, 7 of 8, 8 of 8
dose: 800.0 mg/kg/injection, schedule: Q01DX001 (ip), vehicle: steroid suspending solution
  survivor count: 7 of 8
dose: 800.0 mg/kg/injection, schedule: Q04DX003 (ip), vehicle: Klucel (hydroxypropylcellulose) (HPC), evaluated on day 5
  T/C: 64 and 68 % of control
dose: 800.0 mg/kg/injection, schedule: Q04DX003 (ip), vehicle: Klucel (hydroxypropylcellulose) (HPC), evaluated on day 7
  T/C: 111 and 136 % of control
dose: 800.0 mg/kg/injection, schedule: Q04DX003 (ip), vehicle: Klucel (hydroxypropylcellulose) (HPC), evaluated on day 30
  T/C: 136 % of control
dose: 800.0 mg/kg/injection, schedule: Q04DX003 (ip), vehicle: Klucel (hydroxypropylcellulose) (HPC), evaluated on day 32
  T/C: 110 % of control
dose: 800.0 mg/kg/injection, schedule: Q04DX003 (ip), vehicle: Klucel (hydroxypropylcellulose) (HPC)
  survivor count: 7 of 8 and 8 of 8
dose: 800.0 mg/kg/injection, schedule: Q04DX003 (ip), vehicle: steroid suspending solution
  survivor count: 8 of 8
dose: 1024.0 mg/kg/injection, schedule: Q01DX001 (ip), vehicle: saline with Tween-80
  survivor count: 6 of 10
dose: 1024.0 mg/kg/injection, schedule: Q04DX003 (ip), vehicle: saline with Tween-80
  survivor count: 6 of 10
dose: 1024.0 mg/kg/injection, schedule: Q04DX003 (oral), vehicle: saline with Tween-80
  T/C: 87 [7 of 10 alive], 190, 215, 260 % of control
dose: 1024.0 mg/kg/injection, schedule: Q08DX002 (ip), vehicle: saline with Tween-80
  survivor count: 6 of 10
[1]
  T/C: 109 [9 of 10 alive], 130, 220 % of control
  survivor count: 5 of 10
